# Measurements from the supplement of paper PMC11438910.
# This is one part of the list. Most of these values are background signal.
# B1: 4-127.5 (protein)
# chain 1: QVQLQESGPGLVKPSETLSLTCAVSGYSISSGYGWSWIRQPPGKGLEWIGYIGGSDSSTNYNPSLKSRVTISKDTSKNQLSLKLRSVTAADTAVYYCGSRGAVAGLGGLDSWGQGLLVTVSS
# chain 2: QSVLTQPPSVSGAPGQRVTISCTGSSSNIGAGYGVQWYQQLPGTAPKLLIYENNKRPSGVFDRFSGSQSGTSGSLTITGLQSEDEADYYCQSYDSSLKAVLFGGGTRLTVL
# Assays:
# Experiment in all cases: fluorescence intensity of antibody binding to polysaccharide-coupled beads; higher = stronger binding
# [1] = target: pneumococcal polysaccharide Pn33B
# [2] = target: pneumococcal polysaccharide Pn33C
# [3] = target: pneumococcal polysaccharide Pn33D
# [4] = target: pneumococcal polysaccharide Pn33F
# [5] = target: pneumococcal polysaccharide Pn34
# [6] = target: pneumococcal polysaccharide Pn35A
# [7] = target: pneumococcal polysaccharide Pn35B
# [8] = target: pneumococcal polysaccharide Pn35C
# [9] = target: pneumococcal polysaccharide Pn35F
# [10] = target: pneumococcal polysaccharide Pn36
# [11] = target: pneumococcal polysaccharide Pn37
# [12] = target: pneumococcal polysaccharide Pn38
# [13] = antibody concentration 2.8593 ng/mL
# [14] = antibody concentration 15.2894 ng/mL
# [15] = antibody concentration 81.7561 ng/mL
# [16] = antibody concentration 437.17 ng/mL
# [17] = antibody concentration 2337.65 ng/mL
# [18] = antibody concentration 12500 ng/mL
# [19] = antibody concentration 0.1 ng/mL
# [20] = antibody concentration 0.534724 ng/mL
binder,measurement,setting,value
B1,fluorescence intensity,[1]; [13],18 MFI
same,fluorescence intensity,[1]; [14],19 MFI
same,fluorescence intensity,[1]; [15],18.5 MFI
same,fluorescence intensity,[1]; [16],18.5 MFI
same,fluorescence intensity,[1]; [17],21.5 MFI
same,fluorescence intensity,[1]; [18],33 MFI
same,fluorescence intensity,[2]; [19],20 MFI
same,fluorescence intensity,[2]; [20],19 MFI
same,fluorescence intensity,[2]; [13],19.5 MFI
same,fluorescence intensity,[2]; [14],20.2 MFI
same,fluorescence intensity,[2]; [15],21 MFI
same,fluorescence intensity,[2]; [16],20.5 MFI
same,fluorescence intensity,[2]; [17],24.5 MFI
same,fluorescence intensity,[2]; [18],72.5 MFI
same,fluorescence intensity,[3]; [19],16.5 MFI
same,fluorescence intensity,[3]; [20],17.5 MFI
same,fluorescence intensity,[3]; [13],16.5 MFI
same,fluorescence intensity,[3]; [14],16.8 MFI
same,fluorescence intensity,[3]; [15],17.5 MFI
same,fluorescence intensity,[3]; [16],17.8 MFI
same,fluorescence intensity,[3]; [17],20.5 MFI
same,fluorescence intensity,[3]; [18],33.5 MFI
same,fluorescence intensity,[4]; [19],14 MFI
same,fluorescence intensity,[4]; [20],13.5 MFI
same,fluorescence intensity,[4]; [13],14 MFI
same,fluorescence intensity,[4]; [14],14.5 MFI
same,fluorescence intensity,[4]; [15],13.5 MFI
same,fluorescence intensity,[4]; [16],14.5 MFI
same,fluorescence intensity,[4]; [17],21.5 MFI
same,fluorescence intensity,[4]; [18],174 MFI
same,fluorescence intensity,[5]; [19],15 MFI
same,fluorescence intensity,[5]; [20],16.2 MFI
same,fluorescence intensity,[5]; [13],15 MFI
same,fluorescence intensity,[5]; [14],15 MFI
same,fluorescence intensity,[5]; [15],15 MFI
same,fluorescence intensity,[5]; [16],13.5 MFI
same,fluorescence intensity,[5]; [17],16 MFI
same,fluorescence intensity,[5]; [18],19 MFI
same,fluorescence intensity,[6]; [19],16.5 MFI
same,fluorescence intensity,[6]; [20],16.5 MFI
same,fluorescence intensity,[6]; [13],17 MFI
same,fluorescence intensity,[6]; [14],17.5 MFI
same,fluorescence intensity,[6]; [15],18 MFI
same,fluorescence intensity,[6]; [16],19 MFI
same,fluorescence intensity,[6]; [17],28.5 MFI
same,fluorescence intensity,[6]; [18],136 MFI
same,fluorescence intensity,[7]; [19],19 MFI
same,fluorescence intensity,[7]; [20],17.5 MFI
same,fluorescence intensity,[7]; [13],18.5 MFI
same,fluorescence intensity,[7]; [14],19.5 MFI
same,fluorescence intensity,[7]; [15],18.5 MFI
same,fluorescence intensity,[7]; [16],19 MFI
same,fluorescence intensity,[7]; [17],25.8 MFI
same,fluorescence intensity,[7]; [18],83.5 MFI
same,fluorescence intensity,[8]; [19],20.5 MFI
same,fluorescence intensity,[8]; [20],19.5 MFI
same,fluorescence intensity,[8]; [13],18.5 MFI
same,fluorescence intensity,[8]; [14],20.5 MFI
same,fluorescence intensity,[8]; [15],21.2 MFI
same,fluorescence intensity,[8]; [16],20 MFI
same,fluorescence intensity,[8]; [17],22 MFI
same,fluorescence intensity,[8]; [18],29.5 MFI
same,fluorescence intensity,[9]; [19],21 MFI
same,fluorescence intensity,[9]; [20],21.5 MFI
same,fluorescence intensity,[9]; [13],20 MFI
same,fluorescence intensity,[9]; [14],17.5 MFI
same,fluorescence intensity,[9]; [15],19 MFI
same,fluorescence intensity,[9]; [16],19.5 MFI
same,fluorescence intensity,[9]; [17],22.5 MFI
same,fluorescence intensity,[9]; [18],26.8 MFI
same,fluorescence intensity,[10]; [19],17.2 MFI
same,fluorescence intensity,[10]; [20],16.5 MFI
same,fluorescence intensity,[10]; [13],15 MFI
same,fluorescence intensity,[10]; [14],16 MFI
same,fluorescence intensity,[10]; [15],16.8 MFI
same,fluorescence intensity,[10]; [16],15.5 MFI
same,fluorescence intensity,[10]; [17],18.5 MFI
same,fluorescence intensity,[10]; [18],46.2 MFI
same,fluorescence intensity,[11]; [19],25.5 MFI
same,fluorescence intensity,[11]; [20],27 MFI
same,fluorescence intensity,[11]; [13],26.5 MFI
same,fluorescence intensity,[11]; [14],27 MFI
same,fluorescence intensity,[11]; [15],26.8 MFI
same,fluorescence intensity,[11]; [16],29.5 MFI
same,fluorescence intensity,[11]; [17],45 MFI
same,fluorescence intensity,[11]; [18],342 MFI
same,fluorescence intensity,[12]; [19],27 MFI
same,fluorescence intensity,[12]; [20],26 MFI
same,fluorescence intensity,[12]; [13],26 MFI
same,fluorescence intensity,[12]; [14],25.5 MFI

# At a glance, some entries already given.
binder,measurement,setting,value
B1,fluorescence intensity,[3]; [14],16.8 MFI
same,fluorescence intensity,[3]; [15],17.5 MFI
same,fluorescence intensity,[3]; [16],17.8 MFI
same,fluorescence intensity,[3]; [17],20.5 MFI
same,fluorescence intensity,[3]; [18],33.5 MFI
same,fluorescence intensity,[4]; [19],14 MFI
same,fluorescence intensity,[4]; [20],13.5 MFI
